Measured values from patent US20250304677A1.
Residue numbers refer to the chain shown, from its start. Names may count otherwise. No constants are given. Whether binding was seen depends on the method and setting. Some entries that bind do so weakly or less than the wild type. For part of these data: Where a sequence is shown, tags or fusion partners need not be part of it.

Amino acid sequences for entries named in this document (tags omitted). A change or cut given only in a name is not applied to a line headed by its entry. Chains listed by the source or under a name are the forms on record and can include a tag or linker.
rhesus monkey folate receptor alpha, recombinant (F7BP60, form named): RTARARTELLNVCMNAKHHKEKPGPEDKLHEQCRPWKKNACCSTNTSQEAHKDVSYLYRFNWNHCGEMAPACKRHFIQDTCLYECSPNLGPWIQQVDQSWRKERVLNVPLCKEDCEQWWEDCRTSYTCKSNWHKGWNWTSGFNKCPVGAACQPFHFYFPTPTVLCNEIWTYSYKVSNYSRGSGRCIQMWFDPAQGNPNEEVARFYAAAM
UniProt P15328: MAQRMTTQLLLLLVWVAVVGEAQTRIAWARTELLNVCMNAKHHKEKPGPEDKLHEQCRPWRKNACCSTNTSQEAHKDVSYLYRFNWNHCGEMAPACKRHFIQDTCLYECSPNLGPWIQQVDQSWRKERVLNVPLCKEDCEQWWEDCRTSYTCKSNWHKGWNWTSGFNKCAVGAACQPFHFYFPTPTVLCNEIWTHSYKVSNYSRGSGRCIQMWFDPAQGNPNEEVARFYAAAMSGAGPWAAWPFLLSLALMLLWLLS
UniProt P35846: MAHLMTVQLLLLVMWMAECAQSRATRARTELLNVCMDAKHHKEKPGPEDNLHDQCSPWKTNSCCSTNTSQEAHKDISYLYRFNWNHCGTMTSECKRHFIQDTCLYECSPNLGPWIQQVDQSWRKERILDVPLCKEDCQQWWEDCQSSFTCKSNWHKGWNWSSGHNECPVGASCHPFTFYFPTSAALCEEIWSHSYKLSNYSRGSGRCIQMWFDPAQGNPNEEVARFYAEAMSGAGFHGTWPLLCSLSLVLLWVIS

B1: VHH 2HFO42 (family 3) (VHH)
VHH: QVQLQESGGGLVQAGGSLRLSCAASGSGFSGMIMGWYRQVPGKQRELVATVTSHGTTNYADSVKGRFTISRDNAKNTVLLQMNSLKPEDTAVYYCNAHFPGIYWGKGTQVTVSS
B2: P01500003: 2HF019(Q1E, Q5V, Q108L)-HIS6 (VHH)
VHH: EVQLVESGGGLVQPGGSLRVSCAASGFPFSTVYMSWVRQAPGKGLEWVSGINNDGGVIDYADSVKGRFTISRDNAKNTLYLQLNSLKPEDTALYFCARGRSFVATLSSSLRGQGTLVTVSS
B3: P01500004: 2HF042(Q1E, Q5V, Q108L)-HIS6 (VHH)
VHH: B1 VHH with Q1E, Q5V, Q109L
B4: P01500005: 2MFR67(Q1E, Q5V, Q108L)-HIS6 (VHH)
VHH: B1 VHH with Q1E, Q5V, V40A, D72E, N73D, A74S, Q109L
B5: VHH 2HFO19 (family 1) (VHH)
VHH: B2 VHH with E1Q, V5Q, L116Q
B6: VHH 3MFR60 (family 10) (VHH)
VHH: QVQLQESGGGLVQAGGSLRVSCAASGIIFSMNGMGWFRQAPGKQRELVASITSGGSTKYADSVKGRFTISRDNAKNTVYLQMNSLKPEDTAVYYCNIQFGSRWSTYWGQGTQVTVSS
B7: VHH 2MFR32 (VHH)
VHH: QVQLQESGGGLVQAGGSLRVSCAASGFPFSTVYMSWVRQAPGKGLEWVSGINSNGGVIDYADSVKGRFTISRDNANNTLYLQLNSLKPEDTALYFCAKGRAFVATMPSSLRGQGTQVTVSS
B8: [N73A] (VHH)
VHH: B1 VHH with Q1E, Q5V, A14P, V40A, N73A, L79Y, K86R, Q109L
B9: [N73Q] (VHH)
VHH: B1 VHH with Q1E, Q5V, A14P, V40A, N73Q, L79Y, K86R, Q109L
B10: [K75D] (VHH)
VHH: B1 VHH with Q1E, Q5V, A14P, V40A, K75D, L79Y, K86R, Q109L
B11: [K75V] (VHH)
VHH: B1 VHH with Q1E, Q5V, A14P, V40A, K75V, L79Y, K86R, Q109L
B12: [G26D] (VHH)
VHH: B1 VHH with Q1E, Q5V, A14P, G26D, V40A, L79Y, K86R, Q109L
B13: [G26N] (VHH)
VHH: B1 VHH with Q1E, Q5V, A14P, G26N, V40A, L79Y, K86R, Q109L
B14: [G26Q] (VHH)
VHH: B1 VHH with Q1E, Q5V, A14P, G26Q, V40A, L79Y, K86R, Q109L
B15: [G28K] (VHH)
VHH: B1 VHH with Q1E, Q5V, A14P, G28K, V40A, L79Y, K86R, Q109L
B16: [F29K] (VHH)
VHH: B1 VHH with Q1E, Q5V, A14P, F29K, V40A, L79Y, K86R, Q109L
B17: [S30V] (VHH)
VHH: B1 VHH with Q1E, Q5V, A14P, S30V, V40A, L79Y, K86R, Q109L
B18: [S30E] (VHH)
VHH: B1 VHH with Q1E, Q5V, A14P, S30E, V40A, L79Y, K86R, Q109L
B19: [S30D] (VHH)
VHH: B1 VHH with Q1E, Q5V, A14P, S30D, V40A, L79Y, K86R, Q109L
B20: [I33K] (VHH)
VHH: B1 VHH with Q1E, Q5V, A14P, I33K, V40A, L79Y, K86R, Q109L
B21: [I33R] (VHH)
VHH: B1 VHH with Q1E, Q5V, A14P, I33R, V40A, L79Y, K86R, Q109L
B22: [T50S] (VHH)
VHH: B1 VHH with Q1E, Q5V, A14P, V40A, T50S, L79Y, K86R, Q109L
B23: [T50V] (VHH)
VHH: B1 VHH with Q1E, Q5V, A14P, V40A, T50V, L79Y, K86R, Q109L
B24: [V51Q] (VHH)
VHH: B1 VHH with Q1E, Q5V, A14P, V40A, V51Q, L79Y, K86R, Q109L
B25: [V51T] (VHH)
VHH: B1 VHH with Q1E, Q5V, A14P, V40A, V51T, L79Y, K86R, Q109L
B26: [N58K] (VHH)
VHH: B1 VHH with Q1E, Q5V, A14P, V40A, N58K, L79Y, K86R, Q109L
B27: [D72Y] (VHH)
VHH: B1 VHH with Q1E, Q5V, A14P, V40A, D72Y, L79Y, K86R, Q109L

biological target: rhesus monkey folate receptor alpha, recombinant (rhesus monkey) (UniProt F7BP60); experiment: ELISA

binding, binds:
B1

biological target: recombinant human FRα (29-234), deglycosylated, for co-crystallization (human) (UniProt P15328); experiment: co-crystal structure, 2.8 Å

binding, binds:
B2

biological target: recombinant human FRα (29-234), deglycosylated, for co-crystallization (human) (UniProt P15328); experiment: co-crystal structure, 2.23 Å

binding, binds:
B3

biological target: recombinant human FRα (29-234), deglycosylated, for co-crystallization (human) (UniProt P15328); experiment: co-crystal structure, 3.09 Å

binding, binds:
B4

biological target: human FOLR1/2 chimera 1c (replacing fragment 51-64) (human) (UniProt P15328); experiment: flow cytometry, transfected HEK293T cells

binding, binds:
B1
B5
B6

biological target: mouse folate receptor alpha (mFRα), recombinant protein (mouse) (UniProt P35846); experiment: BLI tandem binning on biotinylated mouse FRα

binding, binds:
B7

biological target: human folate receptor alpha (hFRα), recombinant protein (human) (UniProt P15328); experiment: BLI off-rate screening, crude periplasmic extract, biotinylated human FRα on streptavidin biosensors

binding, binds:
B8
B9
B10
B11
B12
B13
B14
B15
B16
B17
B18
B19
B20
B21
B22
B23
B24
B25
B26
B27

biological target: mouse folate receptor alpha (mFRα), recombinant protein (mouse) (UniProt P35846); experiment: BLI off-rate screening, crude periplasmic extract, biotinylated mouse FRα on streptavidin biosensors

binding, binds:
B8
B9
B10
B11
B12
B13
B14
B15
B16
B17
B18
B19
B20
B21
B22
B23
B24
B25
B26
B27
